Results are given in words; binding and its absence hold for the method and conditions named. In cells and extracts the contact can be indirect. These calls come from enrichment with a bait or labelling near it, and not all partners need be listed. A no says only that the protein was not detected with the bait.

Sequences of proteins named here, by UniProt entry; tags and fusion partners are left off. Residues count along the entry.
UniProt Q6PB66, residues 60-1392: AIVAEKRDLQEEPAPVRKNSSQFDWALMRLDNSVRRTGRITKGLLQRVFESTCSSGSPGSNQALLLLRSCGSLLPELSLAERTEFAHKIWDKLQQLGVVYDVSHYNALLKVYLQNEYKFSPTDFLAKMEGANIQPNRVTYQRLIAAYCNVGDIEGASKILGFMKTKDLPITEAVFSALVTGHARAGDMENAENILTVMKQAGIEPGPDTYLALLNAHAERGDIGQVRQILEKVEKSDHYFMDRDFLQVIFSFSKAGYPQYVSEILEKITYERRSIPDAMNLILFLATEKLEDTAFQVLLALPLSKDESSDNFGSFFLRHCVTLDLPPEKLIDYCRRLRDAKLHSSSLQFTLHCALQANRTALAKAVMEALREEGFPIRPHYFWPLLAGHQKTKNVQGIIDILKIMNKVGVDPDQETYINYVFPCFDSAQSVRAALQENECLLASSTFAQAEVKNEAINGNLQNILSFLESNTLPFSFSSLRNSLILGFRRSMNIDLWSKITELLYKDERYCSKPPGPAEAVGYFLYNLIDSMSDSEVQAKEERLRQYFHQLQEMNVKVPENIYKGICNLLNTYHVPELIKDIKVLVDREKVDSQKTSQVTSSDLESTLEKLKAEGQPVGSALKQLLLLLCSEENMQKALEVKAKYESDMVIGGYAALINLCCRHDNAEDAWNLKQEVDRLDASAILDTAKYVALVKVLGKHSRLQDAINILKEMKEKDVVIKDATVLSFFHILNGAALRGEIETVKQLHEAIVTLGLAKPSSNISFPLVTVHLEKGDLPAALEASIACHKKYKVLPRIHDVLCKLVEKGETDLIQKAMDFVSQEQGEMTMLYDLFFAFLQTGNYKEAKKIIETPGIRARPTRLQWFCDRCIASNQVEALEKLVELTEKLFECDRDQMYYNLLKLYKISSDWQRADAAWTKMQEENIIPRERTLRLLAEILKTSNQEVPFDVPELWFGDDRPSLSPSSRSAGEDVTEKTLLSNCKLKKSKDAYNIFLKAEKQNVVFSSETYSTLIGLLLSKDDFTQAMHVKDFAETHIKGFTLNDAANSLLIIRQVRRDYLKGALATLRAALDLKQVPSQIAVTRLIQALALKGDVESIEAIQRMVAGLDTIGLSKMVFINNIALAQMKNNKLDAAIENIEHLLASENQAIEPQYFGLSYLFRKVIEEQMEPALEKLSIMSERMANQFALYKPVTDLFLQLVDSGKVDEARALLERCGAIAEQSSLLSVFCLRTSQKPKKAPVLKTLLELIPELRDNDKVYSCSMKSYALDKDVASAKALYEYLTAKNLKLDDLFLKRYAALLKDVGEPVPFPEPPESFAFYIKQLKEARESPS
UniProt Q8BKF1, residues 42-1207: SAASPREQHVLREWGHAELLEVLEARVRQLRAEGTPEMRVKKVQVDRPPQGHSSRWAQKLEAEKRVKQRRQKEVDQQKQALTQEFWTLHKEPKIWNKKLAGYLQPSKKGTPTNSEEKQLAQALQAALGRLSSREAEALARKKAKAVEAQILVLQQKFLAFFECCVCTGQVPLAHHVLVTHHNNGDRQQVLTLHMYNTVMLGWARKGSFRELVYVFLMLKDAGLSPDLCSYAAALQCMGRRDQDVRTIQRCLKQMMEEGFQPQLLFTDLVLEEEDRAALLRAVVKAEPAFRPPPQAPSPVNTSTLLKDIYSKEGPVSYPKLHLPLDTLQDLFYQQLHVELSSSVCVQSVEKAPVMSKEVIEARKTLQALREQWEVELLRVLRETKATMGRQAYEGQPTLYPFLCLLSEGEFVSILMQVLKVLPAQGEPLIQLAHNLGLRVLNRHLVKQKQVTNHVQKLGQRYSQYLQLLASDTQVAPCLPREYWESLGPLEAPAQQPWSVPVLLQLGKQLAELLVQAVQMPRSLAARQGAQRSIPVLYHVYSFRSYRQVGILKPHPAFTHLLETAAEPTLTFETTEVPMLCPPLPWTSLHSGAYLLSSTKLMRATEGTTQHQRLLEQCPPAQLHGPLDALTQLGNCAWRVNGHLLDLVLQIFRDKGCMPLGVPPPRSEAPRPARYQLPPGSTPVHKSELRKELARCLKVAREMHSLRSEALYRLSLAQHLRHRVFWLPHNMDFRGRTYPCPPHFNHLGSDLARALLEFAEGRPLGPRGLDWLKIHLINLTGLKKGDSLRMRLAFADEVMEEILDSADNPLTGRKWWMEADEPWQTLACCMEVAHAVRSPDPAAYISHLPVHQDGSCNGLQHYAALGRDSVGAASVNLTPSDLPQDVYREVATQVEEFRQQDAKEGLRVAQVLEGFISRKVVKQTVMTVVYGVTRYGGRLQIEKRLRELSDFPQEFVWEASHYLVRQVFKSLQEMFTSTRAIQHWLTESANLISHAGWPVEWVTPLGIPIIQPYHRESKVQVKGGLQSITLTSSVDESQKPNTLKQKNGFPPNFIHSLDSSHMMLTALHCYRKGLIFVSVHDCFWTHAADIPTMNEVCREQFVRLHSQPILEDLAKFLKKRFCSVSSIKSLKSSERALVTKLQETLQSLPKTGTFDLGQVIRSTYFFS

The assay concerns the target mouse LRPPRC-FLAG (mouse) (UniProt Q6PB66). Briefly: affinity purification with mass spectrometry; anti-FLAG M2 affinity gel on mitochondrial extracts from liver, kidney and heart of LRPPRC-FLAG BAC transgenic mice; lysis buffer B; mass spectrometry.

In the case of “mouse POLRMT (from UniProt Q8BKF1 42-1207)”, the binding result was “no binding”.

(Values after PMC3668712.)
